PubChem BioAssay AID743121, NCATS – 2013

Purpose: 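Partners whose loss is lethal together with topoisomerase I blockade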 (primary screen)
System: MDA-MB-231 cells, a human breast cancer line
Reagents: single siRNA against human genes, 20 nM siRNA (0.8 pmol per well)
Timing: 120 h (drug added 48 h after transfection, read 72 h later)
Conditions: camptothecin 20 nM (about EC30) for 72 h; vehicle 0.1% DMSO in parallel plates
Measured: 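Cell viability by ATP luminescence (CellTiter-Glo) as % of non-targeting siRNA wells, and the log2 ratio of viability without drug over viability with camptothecin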
Reading the numbers: log2 vehicle/camptothecin viability: higher = stronger sensitisation to camptothecin; viability with camptothecin: higher = more viable cells
Hit rule: 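Each gene scored by redundant siRNA activity (RSA) over its individual siRNA ratios; a gene is called active at p < 0.001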
Here is a random part of about 26,000 reagents. 167 of all reagents (0.63%) count as active. 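Calls are per gene from RSA p-values that are not deposited; an individual active-marked siRNA can sensitise only weakly.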 A number with no mark means an inactive call. Reagents against one gene are numbered here. Further read-outs or replicates are left out here. Reagent sequences are not shown.

| gene knocked down | reagent | log2 vehicle/camptothecin viability | viability with camptothecin (% of control) |
| --- | --- | --- | --- |
| PHKG2 | 1 | -0.386 | 30.1 |
| PHKG2 | 2 | -0.449 | 92.3 |
| PHKG2 | 3 | -0.0249 | 75.8 |
| PHKG2 | 4 | -0.286 | 89.7 |
| GPRASP1 | 1 | 0.921 | 53.6 |
| GPRASP1 | 2 | -0.188 | 58.3 |
| GPRASP1 | 3 | 0.148 | 71.3 |
| GPRASP1 | 4 | 0.436 | 49.9 |
| GPX2 | 1 | -0.144 | 87.1 |
| GPX2 | 2 | -0.04 | 39.7 |
| GPX2 | 3 | -0.0949 | 57.7 |
| GPX2 | 4 | -0.0942 | 54.2 |
| C2orf42 | 1 | -0.363 | 20.5 |
| C2orf42 | 2 | -0.197 | 64 |
| C2orf42 | 3 | -0.158 | 71.4 |
| C2orf42 | 4 | 0.183 | 36.4 |
| SARM1 | 1 | -0.214 | 111 |
| SARM1 | 2 | 0.851 | 56 |
| SARM1 | 3 | -0.114 | 80.2 |
| SARM1 | 4 | -0.132 | 118 |
| ATL1 | 1 | -0.154 | 106 |
| ATL1 | 2 | 0.389 | 75.9 |
| ATL1 | 3 | -0.0278 | 97 |
| ATL1 | 4 | -0.507 | 86.2 |
| LAMA3 | 1 | 0.262 | 67.1 |
| LAMA3 | 2 | -0.126 | 67.4 |
| LAMA3 | 3 | -0.539 | 72.4 |
| LAMA3 | 4 | -0.217 | 104 |
| CSK | 1 | 0.221 | 34 |
| CSK | 2 | -0.212 | 91 |
| CSK | 3 | -0.241 | 83.9 |
| CSK | 4 | -0.101 | 106 |
| PRKCSH | 1 | 0.0125 | 105 |
| PRKCSH | 2 | -0.343 | 103 |
| PRKCSH | 3 | -0.334 | 96.7 |
| PRKCSH | 4 | 0.302 | 10.2 |
| ADAMTS2 | 1 | 0.482 | 41.2 |
| ADAMTS2 | 2 | -0.0279 | 42.6 |
| ADAMTS2 | 3 | 0.108 | 95.9 |
| ADAMTS2 | 4 | -0.496 | 58.8 |
| PRKAG1 | 1 | -0.0382 | 95 |
| PRKAG1 | 2 | -0.057 | 71.8 |
| PRKAG1 | 3 | -0.294 | 74.2 |
| PRKAG1 | 4 | -0.262 | 77.2 |
| OLIG2 | 1 | -0.194 | 108 |
| OLIG2 | 2 | -0.219 | 65.5 |
| OLIG2 | 3 | -0.195 | 62.3 |
